# Assay results taken from paper PMC11112124.
# Chains of the proteins cited; added tags and fusions are not shown. Lines headed by an entry give the natural chain unless they say otherwise; changes in a name come on top.
# UniProt P35613: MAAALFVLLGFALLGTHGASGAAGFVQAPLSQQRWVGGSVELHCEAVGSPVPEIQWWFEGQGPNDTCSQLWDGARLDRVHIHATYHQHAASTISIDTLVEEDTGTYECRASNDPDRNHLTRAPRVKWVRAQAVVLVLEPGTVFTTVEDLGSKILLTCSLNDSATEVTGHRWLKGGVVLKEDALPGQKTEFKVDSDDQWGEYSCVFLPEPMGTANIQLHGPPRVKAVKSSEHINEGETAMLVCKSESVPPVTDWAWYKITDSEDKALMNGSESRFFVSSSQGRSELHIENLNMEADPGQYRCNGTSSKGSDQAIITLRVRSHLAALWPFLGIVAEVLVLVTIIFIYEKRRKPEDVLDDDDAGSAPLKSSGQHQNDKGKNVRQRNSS
# These are yes or no findings as the source states them, for the method shown. In cells and extracts the contact can be indirect. A result given as binding can be weak or reduced; the word gives no strength.
# T1: rat MCT4 (rMCT4), lactate-H+ cotransporter MCT4 (rat) (UniProt O35910)
# T1 sequence: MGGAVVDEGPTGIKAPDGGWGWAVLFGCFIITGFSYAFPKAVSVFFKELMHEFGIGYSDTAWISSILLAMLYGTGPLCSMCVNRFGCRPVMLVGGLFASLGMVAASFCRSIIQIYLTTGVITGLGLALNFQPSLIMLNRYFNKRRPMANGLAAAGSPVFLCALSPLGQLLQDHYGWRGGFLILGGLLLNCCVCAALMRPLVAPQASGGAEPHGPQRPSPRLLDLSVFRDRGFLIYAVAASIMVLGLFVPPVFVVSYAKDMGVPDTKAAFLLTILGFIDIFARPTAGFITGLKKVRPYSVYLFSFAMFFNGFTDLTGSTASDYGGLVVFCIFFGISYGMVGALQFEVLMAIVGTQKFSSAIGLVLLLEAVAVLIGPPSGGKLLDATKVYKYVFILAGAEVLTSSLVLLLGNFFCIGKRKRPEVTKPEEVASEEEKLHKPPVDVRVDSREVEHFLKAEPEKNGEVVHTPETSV
# B1: rat MCT4 (rMCT4), lactate-H+ cotransporter MCT4 (protein, UniProt O35910 1-471)
# chain: T1 sequence
# Key:
# [1] = biological target: T1, rat MCT4 (rMCT4), lactate-H+ cotransporter MCT4 (rat); assay: co-IP; MDA-MB-231 cells transfected with CD147 and MCT4 plasmids; NP40 lysis buffer (50 mM Tris-HCl pH 7.4, 140 mM NaCl, 1% IGEPAL); lysate incubated overnight at 4°C with anti-CD147 or anti-MCT4 antibody, Dynabeads Protein G, five washes in lysis buffer; western blot
# CD147 (basigin) = CD147 (basigin) (UniProt P35613); assay: as above
Molecule,binding [1],binding (CD147 (basigin))
CD147 (basigin) (from UniProt P35613-2),binds,
B1,,binds
